This is one part of the list. Single values are uncertain, as repeats are few or missing.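 Cells were imaged in 1,536-well plates, and nuclei stained with an antibody against cleaved PARP were counted against all DNA-stained nuclei to give the apoptosis fraction. Screening doses were chosen to leave most cells alive, and resting and induced cleaved-PARP levels differ strongly between cell lines.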

Here are results for ten molecules from the supplement of paper PMC4604168 (melanoma cell lines).

Among the test systems are MZ2-MEL; MeWo; RPMI7951; RVH-421; SkMel28; SkMel2; SkMel30; SkMel5; UACC257; UACC62.
Holding throughout (assay): cleaved PARP positive nuclei fraction relative to DMSO control; melanoma cells; higher = more apoptosis
Common to all, as to conditions: library dose: low library concentration; 72 h

Consider `CC1(C)CCC(c2ccc(Cl)cc2)=C(CN2CCN(c3ccc(C(=O)NS(=O)(=O)c4ccc(N[C@H](CCN5CCOCC5)CSc5ccccc5)c(S(=O)(=O)C(F)(F)F)c4)cc3)CC2)C1` + Cn1cncc1[C@@](N)(c1ccc(Cl)cc1)c1ccc2c(c1)c(-c1cccc(Cl)c1)cc(=O)n2C [tipifarnib] (first compound 0.4 µM, partner dose 0.01 µM), for which the “cleaved PARP positive nuclei fraction” value in the experiment with MZ2-MEL was 466%; in the experiment with MeWo, 133%; in the experiment with RPMI7951 it was 74.8%; in the experiment with RVH-421, 113%; in the experiment with SkMel28, 152%; in the experiment with SkMel2, 251%. Besides, the “cleaved PARP positive nuclei fraction” value in the experiment on SkMel30 turned out to be 122%; with SkMel5, 263%; in the experiment on UACC257 it was 249%; in the experiment with UACC62 it was 78.4%.
For the molecule `C[C@]1(O)C[C@@H](c2nc(-c3ccc4ccc(-c5ccccc5)nc4c3)c3c(N)nccn32)C1` + CC(C)CCN1c2nc(Nc3cc(F)c(O)c(F)c3)ncc2N(C)C(=O)C1C [BID1870] (first compound 0.4 µM, partner dose 0.2 µM), the “cleaved PARP positive nuclei fraction” value is 217% with MZ2-MEL; 92.4% in the experiment on MeWo; 148% with RPMI7951; 31.4% in the experiment with RVH-421; 174% in the experiment on SkMel28; 99% in the experiment on SkMel2. In addition, the “cleaved PARP positive nuclei fraction” value was determined as 104% in the experiment with SkMel30, 300% with SkMel5, 177% in the experiment on UACC257 and 75.2% in the experiment on UACC62.
Turning to `C[C@]1(O)C[C@@H](c2nc(-c3ccc4ccc(-c5ccccc5)nc4c3)c3c(N)nccn32)C1` + CO[C@@H]1[C@H](N(C)C(=O)c2ccccc2)C[C@H]2O[C@]1(C)n1c3ccccc3c3c4c(c5c6ccccc6n2c5c31)C(=O)NC4 [Midostaurin] (first compound 0.4 µM, partner dose 0.08 µM), the “cleaved PARP positive nuclei fraction” value in the experiment with MZ2-MEL stood at 127%; in the experiment on MeWo, 54.2%; in the experiment on RPMI7951, 157%; in the experiment on RVH-421 it was 71.6%; in the experiment on SkMel28, 307%; with SkMel2, 95.3%. Further, the “cleaved PARP positive nuclei fraction” value with SkMel30 stood at 58.8%; in the experiment on SkMel5, 70.8%; with UACC257, 67.8%; with UACC62 it was 104%.
Regarding `C[C@@H](N)c1ccc(C(=O)Nc2ccnc3[nH]ccc23)cc1` + C=CCn1c(=O)c2cnc(Nc3ccc(N4CCN(C)CC4)cc3)nc2n1-c1cccc(C(C)(C)O)n1 [MK1775] (first compound 0.4 µM, partner dose 0.02 µM), the “cleaved PARP positive nuclei fraction” value with MZ2-MEL was 376%; with MeWo it was 376%; with RPMI7951 it was 316%; with RVH-421, 65.8%; in the experiment with SkMel28, 86.5%; in the experiment with SkMel2, 126%. The “cleaved PARP positive nuclei fraction” value with SkMel30 stood at 109%; with SkMel5, 68.7%; in the experiment with UACC257, 92.4%; with UACC62 it was 303%.
Turning to `CCN(CC)CCNC(=O)c1c(C)[nH]c(/C=C2\C(=O)Nc3ccc(F)cc32)c1C` [sunitinib] + C[C@@H]1CCN(C(=O)CC#N)C[C@@H]1N(C)c1ncnc2[nH]ccc12 [CP690550] (first compound 0.4 µM, partner dose 1 µM), the “cleaved PARP positive nuclei fraction” value in the experiment with MZ2-MEL is 61.8%; in the experiment with MeWo, 99.8%; in the experiment on RPMI7951 it was 63.6%; in the experiment with RVH-421, 32.2%; with SkMel28, 306%; in the experiment with SkMel2 it was 82%. Also, the “cleaved PARP positive nuclei fraction” value is 124% with SkMel30, 184% in the experiment with SkMel5, 85.3% in the experiment with UACC257 and 31.1% in the experiment with UACC62.
For `C[C@@H](N)c1ccc(C(=O)Nc2ccnc3[nH]ccc23)cc1` + Cc1cc([N+](=O)[O-])ccc1NS(=O)(=O)c1cc(Cl)ccc1Cl [FH535] (first compound 0.4 µM, partner dose 1 µM), the “cleaved PARP positive nuclei fraction” value in the experiment with MZ2-MEL is 56.9%; in the experiment with MeWo, 184%; in the experiment on RPMI7951, 106%; in the experiment on RVH-421, 234%; in the experiment on SkMel28, 299%; in the experiment with SkMel2, 21.5%. Moreover, the “cleaved PARP positive nuclei fraction” value in the experiment with SkMel30 is 110%; in the experiment on SkMel5, 84.5%; in the experiment on UACC257 it was 97.1%; with UACC62, 213%.
With `COc1ccc(C2=N[C@@H](c3ccc(Cl)cc3)[C@@H](c3ccc(Cl)cc3)N2C(=O)N2CCNC(=O)C2)c(OC(C)C)c1` [Nutlin-3] + COc1ccc(COc2ccc(Cc3cnc(N)nc3N)cc2OC)cc1 [GW2580] (first compound 0.1 µM, partner dose 1 µM), the “cleaved PARP positive nuclei fraction” value in the experiment with MZ2-MEL turned out to be 101%; in the experiment on MeWo, 84.8%; with RPMI7951 it was 41.7%; in the experiment with RVH-421 it was 131%; in the experiment on SkMel28 it was 101%; with SkMel2 it was 127%. Besides, the “cleaved PARP positive nuclei fraction” value amounted to 33.8% in the experiment with SkMel30, 166% with SkMel5, 276% in the experiment on UACC257 and 63% in the experiment with UACC62.
As for `CN(c1ncccc1CNc1nc(Nc2ccc3c(c2)CC(=O)N3)ncc1C(F)(F)F)S(C)(=O)=O` + NC(=O)Nc1cc(-c2cccc(F)c2)sc1C(=O)N[C@H]1CCCNC1 [AZD7762] (first compound 0.08 µM, partner dose 0.02 µM), the “cleaved PARP positive nuclei fraction” value with MZ2-MEL amounted to 227%; with MeWo, 90.9%; in the experiment on RPMI7951 it was 108%; in the experiment on RVH-421, 40.2%; with SkMel28, 290%; in the experiment on SkMel2, 150%. Besides, the “cleaved PARP positive nuclei fraction” value was found to be 146% in the experiment on SkMel30, 83% with SkMel5, 52.3% in the experiment with UACC257 and 139% with UACC62.
As for `CCN(CC)CCNC(=O)c1c(C)[nH]c(/C=C2\C(=O)Nc3ccc(F)cc32)c1C` [sunitinib] + O=S(=O)(c1ccccc1)N(CC(F)(F)F)c1ccc(C(O)(C(F)(F)F)C(F)(F)F)cc1 [T0901317] (first compound 0.4 µM, partner dose 1.4 µM), the “cleaved PARP positive nuclei fraction” value with MZ2-MEL worked out at 139%; with MeWo it was 211%; in the experiment with RPMI7951, 140%; in the experiment on RVH-421, 99.8%; in the experiment with SkMel28, 259%; in the experiment on SkMel2 it was 45%. In addition, the “cleaved PARP positive nuclei fraction” value in the experiment with SkMel30 amounted to 243%; with SkMel5, 87.1%; with UACC257 it was 73.2%; in the experiment with UACC62 it was 976%.
Regarding `CC(=O)O[C@@]12CO[C@@H]1C[C@H](O)[C@@]1(C)C(=O)[C@H](O)C3=C(C)[C@@H](OC(=O)[C@H](O)[C@@H](NC(=O)OC(C)(C)C)c4ccccc4)C[C@@](O)([C@@H](OC(=O)c4ccccc4)[C@H]21)C3(C)C` [Docetaxel] + COc1ccc(-c2ccc3c(N4CCOCC4)nc(N4C[C@@H](C)O[C@@H](C)C4)nc3n2)cc1CO [KU0063794] (first compound 0.0001 µM, partner dose 0.02 µM), the “cleaved PARP positive nuclei fraction” value was 930% in the experiment with MZ2-MEL; 400% in the experiment on MeWo; 166% in the experiment with RPMI7951; 214% with RVH-421; 335% in the experiment on SkMel28; 477% with SkMel2. Also, the “cleaved PARP positive nuclei fraction” value in the experiment with SkMel30 stood at 178%; in the experiment on SkMel5, 109%; with UACC257, 354%; in the experiment on UACC62 it was 461%.
